Assay results as given in publication PMC3260166, “HspB2/Myotonic Dystrophy Protein Kinase Binding Protein (MKBP) as a Novel Molecular Chaperone: Structural and Functional Aspects” (PLoS ONE, 2012).
These are yes or no findings as the source states them, for the method shown. Some results given as binding are weak or reduced against the parent protein; the word gives no strength.

Biological target: T1, citrate synthase (UniProt P00889)
T1 sequence: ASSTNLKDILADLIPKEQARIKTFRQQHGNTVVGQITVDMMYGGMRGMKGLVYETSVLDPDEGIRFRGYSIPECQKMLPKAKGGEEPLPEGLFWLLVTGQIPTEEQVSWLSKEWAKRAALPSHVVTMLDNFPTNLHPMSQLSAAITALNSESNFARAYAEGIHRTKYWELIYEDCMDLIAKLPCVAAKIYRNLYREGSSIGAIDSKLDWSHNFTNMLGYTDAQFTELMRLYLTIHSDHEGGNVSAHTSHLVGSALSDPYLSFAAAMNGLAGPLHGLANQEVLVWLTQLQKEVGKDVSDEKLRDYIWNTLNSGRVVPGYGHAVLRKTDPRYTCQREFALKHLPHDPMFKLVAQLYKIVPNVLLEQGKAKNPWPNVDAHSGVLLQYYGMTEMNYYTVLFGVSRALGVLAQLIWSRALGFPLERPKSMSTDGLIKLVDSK
Test: co-sedimentation; citrate synthase (25 µg/ml) heated at 43°C in 40 mM HEPES-KOH pH 7.5 with HspB2 at various w/w ratios; centrifuged at the end of the chaperone assay, soluble and precipitate fractions on SDS-PAGE; both purified

B1: human HspB2 / Myotonic Dystrophy Protein Kinase Binding Protein (MKBP) (natural protein, UniProt Q16082 1-182, looked up)
chain: MSGRSVPHAHPATAEYEFANPSRLGEQRFGEGLLPEEILTPTLYHGYYVRPRAAPAGEGSRAGASELRLSEGKFQAFLDVSHFTPDEVTVRTVDNLLEVSARHPQRLDRHGFVSREFCRTYVLPADVDPWRVRAALSHDGILNLEAPRGGRHLDTEVNEVYISLLPAPPDPEEEEEAAIVEP
notes: HspB2 (MKBP), human; The reverse primer carries the stop codon (TCA), so the C-terminal His tag of pET21a is probably not translated; also called MKBP/HspB2; source: E. coli BL21 DE3, purified (20% ammonium sulfate precipitation, Phenyl Sepharose)
binding: binds
